Publication PMC5201011 (2016)
Results are given in words; binding and its absence hold for the method and conditions named. In cells and extracts the contact can be indirect. Here binding means that the protein was enriched with, or labelled near, the bait; the list need not be complete. Where a sequence is shown, tags or fusion partners need not be part of it.

Biological target: T1, GST–Rab40b (UniProt Q12829)
T1 sequence: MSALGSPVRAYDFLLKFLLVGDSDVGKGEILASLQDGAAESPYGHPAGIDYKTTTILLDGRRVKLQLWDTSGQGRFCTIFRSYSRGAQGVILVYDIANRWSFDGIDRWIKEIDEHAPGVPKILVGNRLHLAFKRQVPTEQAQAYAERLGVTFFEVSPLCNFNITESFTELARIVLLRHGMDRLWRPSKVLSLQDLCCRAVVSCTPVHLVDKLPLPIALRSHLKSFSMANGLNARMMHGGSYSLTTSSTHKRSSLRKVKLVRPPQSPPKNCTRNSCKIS
Assay: affinity purification with mass spectrometry; MDA-MB-231 cell lysates incubated with GST or GST–Rab40b-coated beads (affinity column); bound proteins analysed by mass spectrometry; only the target purified

B1: Tks5 (tyrosine kinase substrate 5) (protein, UniProt Q5TCZ1 1-1133)
chain: MLAYCVQDATVVDVEKRRNPSKHYVYIINVTWSDSTSQTIYRRYSKFFDLQMQLLDKFPIEGGQKDPKQRIIPFLPGKILFRRSHIRDVAVKRLKPIDEYCRALVRLPPHISQCDEVFRFFEARPEDVNPPKEDYGSSKRKSVWLSSWAESPKKDVTGADATAEPMILEQYVVVSNYKKQENSELSLQAGEVVDVIEKNESGWWFVSTSEEQGWVPATYLEAQNGTRDDSDINTSKTGEVSKRRKAHLRRLDRRWTLGGMVNRQHSREEKYVTVQPYTSQSKDEIGFEKGVTVEVIRKNLEGWWYIRYLGKEGWAPASYLKKAKDDLPTRKKNLAGPVEIIGNIMEISNLLNKKASGDKETPPAEGEGHEAPIAKKEISLPILCNASNGSAVGVPDRTVSRLAQGSPAVARIAPQRAQISSPNLRTRPPPRRESSLGFQLPKPPEPPSVEVEYYTIAEFQSCISDGISFRGGQKAEVIDKNSGGWWYVQIGEKEGWAPASYIDKRKKPNLSRRTSTLTRPKVPPPAPPSKPKEAEEGPTGASESQDSPRKLKYEEPEYDIPAFGFDSEPELSEEPVEDRASGERRPAQPHRPSPASSLQRARFKVGESSEDVALEEETIYENEGFRPYAEDTLSARGSSGDSDSPGSSSLSLTRKNSPKSGSPKSSSLLKLKAEKNAQAEMGKNHSSASFSSSITINTTCCSSSSSSSSSLSKTSGDLKPRSASDAGIRGTPKVRAKKDADANAGLTSCPRAKPSVRPKPFLNRAESQSQEKMDISTLRRQLRPTGQLRGGLKGSKSEDSELPPQTASEAPSEGSRRSSSDLITLPATTPPCPTKKEWEGPATSYMTCSAYQKVQDSEISFPAGVEVQVLEKQESGWWYVRFGELEGWAPSHYLVLDENEQPDPSGKELDTVPAKGRQNEGKSDSLEKIERRVQALNTVNQSKKATPPIPSKPPGGFGKTSGTPAVKMRNGVRQVAVRPQSVFVSPPPKDNNLSCALRRNESLTATDGLRGVRRNSSFSTARSAAAEAKGRLAERAASQGSDSPLLPAQRNSIPVSPVRPKPIEKSQFIHNNLKDVYVSIADYEGDEETAGFQEGVSMEVLERNPNGWWYCQILDGVKPFKGWVPSNYLEKKN
For B1, the binding was “binds”.
